Tested on: U2OS cells
Experiment: Level of ectopic E2F-1 protein after transfection
Type: cell-based
Details: 1 μg transfected into U2OS cells; compared to wild-type E2F-1

Substance | level of ectopic protein
KK: methylation-defective E2F-1 protein containing the mutations R111K and R113K | expressed at increased levels
KKK: methylation-defective E2F-1 protein containing the mutations R109K, R111K and R113K | expressed at increased levels

Source: patent US8841274B2, “Protein arginine N-methyltransferase-5 method of cancer treatment” (priority 2009, dated 2014)
